From PubChem BioAssay AID186 (DTP/NCI, 2004) come the findings set out here.

The mice bore no tumour; each value counts animals alive of those treated. Survivors were counted at the toxicity check, usually on the fifth day, unless a day is given; later deaths do not show. Schedule codes are those of the source, taken here to give the interval after Q, in days (D) or hours (H), and the number of doses after X. Some entries were tested several times; their values stand side by side, smallest first.

This assay has as its system B6D2F1 mice, nontumored toxicity test, survival. Briefly: NCI In Vivo Anticancer Drug Screen. Data for tumor model Nontumored Animals (Toxicity Test) in B6D2F1 (BDF1) mice.

For the compound `C[n+]1ccc(Nc2ccc(NC(=O)c3ccc(Nc4cc[n+](C)c5ccc(N)cc45)cc3)cc2)cc1`, the survivor count was 8 of 8 (dose: 0.25 mg/kg/injection, schedule: Q03HX008 (ip), vehicle: water); 7 of 7 and 8 of 8 (dose: 0.25 mg/kg/injection, schedule: Q03HX016 (ip), vehicle: water); 8 of 8 (dose: 0.25 mg/kg/injection, schedule: Q03HX024 (ip), vehicle: water); 6 of 6 and 8 of 8 (dose: 0.5 mg/kg/injection, schedule: Q01DX005 (ip), vehicle: water); 7 of 7 and 8 of 8 (dose: 0.5 mg/kg/injection, schedule: Q01DX009 (ip), vehicle: water); 8 of 8 (dose: 0.5 mg/kg/injection, schedule: Q01DX009 (sc), vehicle: water). Besides, the survivor count is 7 of 8 and 8 of 8 (dose: 0.5 mg/kg/injection, schedule: Q03HX008 (ip), vehicle: water); 7 of 8 and 8 of 8 (dose: 0.5 mg/kg/injection, schedule: Q03HX016 (ip), vehicle: water); 8 of 8 (dose: 0.5 mg/kg/injection, schedule: Q03HX024 (ip), vehicle: water); 8 of 8 (dose: 1.0 mg/kg/injection, schedule: Q01DX005 (ip), vehicle: water); 8 of 8 (dose: 1.0 mg/kg/injection, schedule: Q01DX009 (ip), vehicle: water); 8 of 8 (dose: 1.0 mg/kg/injection, schedule: Q01DX009 (sc), vehicle: water). Also, the survivor count is listed as 8 of 8 (dose: 1.0 mg/kg/injection, schedule: Q03HX008 (ip), vehicle: water); 8 of 8 (dose: 1.0 mg/kg/injection, schedule: Q03HX016 (ip), vehicle: water); 8 of 8 (dose: 1.0 mg/kg/injection, schedule: Q03HX024 (ip), vehicle: water); 8 of 8 (dose: 2.0 mg/kg/injection, schedule: Q01DX001 (sc), vehicle: water); 8 of 8 (dose: 2.0 mg/kg/injection, schedule: Q01DX005 (ip), vehicle: water); 8 of 8 (dose: 2.0 mg/kg/injection, schedule: Q01DX009 (ip), vehicle: water). The survivor count was 8 of 8 (dose: 2.0 mg/kg/injection, schedule: Q01DX009 (sc), vehicle: water); 8 of 8 (dose: 2.0 mg/kg/injection, schedule: Q03HX008 (ip), vehicle: water); 8 of 8 (dose: 2.0 mg/kg/injection, schedule: Q03HX016 (ip), vehicle: water); 7 of 8 and 8 of 8 (dose: 2.0 mg/kg/injection, schedule: Q03HX024 (ip), vehicle: water); 8 of 8 (dose: 2.0 mg/kg/injection, schedule: Q04DX003 (ip), vehicle: water); 8 of 8 (dose: 2.0 mg/kg/injection, schedule: Q08DX002 (ip), vehicle: water). Further, the survivor count by setting is: (dose: 4.0 mg/kg/injection, schedule: Q01DX001 (ip), vehicle: water) 8 of 8; (dose: 4.0 mg/kg/injection, schedule: Q01DX001 (sc), vehicle: water) 8 of 8; (dose: 4.0 mg/kg/injection, schedule: Q01DX005 (ip), vehicle: water) 8 of 8; (dose: 4.0 mg/kg/injection, schedule: Q01DX009 (ip), vehicle: water) 8 of 8; (dose: 4.0 mg/kg/injection, schedule: Q01DX009 (sc), vehicle: water) 8 of 8; (dose: 4.0 mg/kg/injection, schedule: Q03HX008 (ip), vehicle: water) 8 of 8. Moreover, the survivor count by setting is: (dose: 4.0 mg/kg/injection, schedule: Q03HX016 (ip), vehicle: water) 7 of 8 and 8 of 8; (dose: 4.0 mg/kg/injection, schedule: Q03HX024 (ip), vehicle: water) 7 of 8 and 8 of 8; (dose: 4.0 mg/kg/injection, schedule: Q04DX003 (ip), vehicle: water) 8 of 8; (dose: 4.0 mg/kg/injection, schedule: Q08DX002 (ip), vehicle: water) 8 of 8; (dose: 8.0 mg/kg/injection, schedule: Q01DX001 (ip), vehicle: water) 7 of 8 and 8 of 8; (dose: 8.0 mg/kg/injection, schedule: Q01DX001 (sc), vehicle: water) 8 of 8. Besides, the survivor count was 5 of 7 and 8 of 8 (dose: 8.0 mg/kg/injection, schedule: Q01DX005 (ip), vehicle: water); 6 of 8 (dose: 8.0 mg/kg/injection, schedule: Q01DX009 (ip), vehicle: water); 8 of 8 (dose: 8.0 mg/kg/injection, schedule: Q01DX009 (sc), vehicle: water); 0 of 8 and 6 of 8 (dose: 8.0 mg/kg/injection, schedule: Q03HX008 (ip), vehicle: water); 2 of 8 and 3 of 8 (dose: 8.0 mg/kg/injection, schedule: Q03HX016 (ip), vehicle: water); 1 of 8 and 4 of 8 (dose: 8.0 mg/kg/injection, schedule: Q03HX024 (ip), vehicle: water). The survivor count (dose: 8.0 mg/kg/injection, schedule: Q04DX003 (ip), vehicle: water) was 1 of 8 and 8 of 8; the survivor count (dose: 8.0 mg/kg/injection, schedule: Q08DX002 (ip), vehicle: water) is 6 of 7 and 8 of 8; the survivor count (dose: 16.0 mg/kg/injection, schedule: Q01DX001 (ip), vehicle: water) is 0 of 8 and 2 of 8; the survivor count (dose: 16.0 mg/kg/injection, schedule: Q01DX001 (sc), vehicle: water) is on record as 8 of 8; the survivor count (dose: 16.0 mg/kg/injection, schedule: Q01DX005 (ip), vehicle: water) is 0 of 8; the survivor count (dose: 16.0 mg/kg/injection, schedule: Q01DX009 (ip), vehicle: water) is 0 of 8 and 1 of 8. For the same compound, the survivor count reads like this: (dose: 16.0 mg/kg/injection, schedule: Q01DX009 (sc), vehicle: water) 8 of 8; (dose: 16.0 mg/kg/injection, schedule: Q04DX003 (ip), vehicle: water) 2 of 8 and 8 of 8; (dose: 16.0 mg/kg/injection, schedule: Q08DX002 (ip), vehicle: water) 0 of 8; (dose: 32.0 mg/kg/injection, schedule: Q01DX001 (ip), vehicle: water) 0 of 8 and 1 of 8; (dose: 32.0 mg/kg/injection, schedule: Q01DX001 (sc), vehicle: water) 7 of 8 and 8 of 8; (dose: 32.0 mg/kg/injection, schedule: Q04DX003 (ip), vehicle: water) 0 of 8 and 1 of 8. Besides, the survivor count (dose: 32.0 mg/kg/injection, schedule: Q08DX002 (ip), vehicle: water) is 0 of 8 and 1 of 8; the survivor count (dose: 64.0 mg/kg/injection, schedule: Q01DX001 (ip), vehicle: water) is recorded as 0 of 8; the survivor count (dose: 64.0 mg/kg/injection, schedule: Q01DX001 (sc), vehicle: water) is 0 of 8 and 7 of 8; the survivor count (dose: 64.0 mg/kg/injection, schedule: Q04DX003 (ip), vehicle: water) is given as 0 of 8; the survivor count (dose: 64.0 mg/kg/injection, schedule: Q08DX002 (ip), vehicle: water) is 0 of 8.

For `NC(=O)c1[nH]nc(C2OC(CO)C(O)C2O)c1O` (stereo not given), the survivor count is reported as 8 of 8 (dose: 0.5 mg/kg/injection, schedule: Q04DX003 (ip), vehicle: saline); 8 of 8 (dose: 1.0 mg/kg/injection, schedule: Q04DX003 (ip), vehicle: saline); 8 of 8 (dose: 2.0 mg/kg/injection, schedule: Q04DX003 (ip), vehicle: saline); 8 of 8 (dose: 4.0 mg/kg/injection, schedule: Q04DX003 (ip), vehicle: saline); 8 of 8 (dose: 8.0 mg/kg/injection, schedule: Q04DX003 (ip), vehicle: saline); 8 of 8 (dose: 16.0 mg/kg/injection, schedule: Q04DX003 (ip), vehicle: saline). The survivor count (dose: 32.0 mg/kg/injection, schedule: Q04DX003 (ip), vehicle: saline) is on record as 8 of 8.

On to `CN(C)c1ncnc2c1ncn2C1OC(CO)C(N)C1O` (stereo not given), for which the survivor count (dose: 0.75 mg/kg/injection, schedule: Q06HX024 (ip), vehicle: saline) is on record as 5 of 6; the survivor count (dose: 1.5 mg/kg/injection, schedule: Q06HX024 (ip), vehicle: saline) is given as 6 of 6; the survivor count (dose: 3.0 mg/kg/injection, schedule: Q06HX024 (ip), vehicle: saline) is 6 of 6; the survivor count (dose: 6.0 mg/kg/injection, schedule: Q06HX024 (ip), vehicle: saline) is 6 of 6.
